This assay concerns GEMS receptors with CBPA11 (BclXL–LD3 and BclXLhigh variants), STAT3-driven SEAP in HEK293T cells. Description: GEMS SEAP reporter assay, CBPA11 (BclXLhigh, LD3-v and BclXL-v variants) with A-1155463. Conditions: representative data and independent repeats 1, 2 (triplicates). On the technique in general: In a reporter assay the amount or activity of a reporter protein is the signal.

Experimental findings from article PMC11062894, “Protein-based bandpass filters for controlling cellular signaling with chemical inputs” (Nature Chemical Biology, 2023) are described below.

Some entries of the source have several records that differ or are many. They are shown here; other results are not. There may be further records. For some assays here: The values listed for one entry seem to repeat one measurement (runs, samples, wells or individuals). For some assays here: Values given together appear to be repeats (runs, samples, wells or individuals); one of them may be the mean.

Turning to `CN(C)CC#Cc1ccc(OCCCc2sc(N3CCc4cccc(C(=O)Nc5nc6ccccc6s5)c4C3)nc2C(=O)O)c(F)c1` [A-1155463], the “SEAP (U/L)” value (Figure 4c, A-1155463 1 nM) is reported as 11.808, 7.963, 8.217, 63.1842, 65.5998, 59.3672, 39.8592, 46.1014, 58.9505 U/L; the “SEAP (U/L)” value (Figure 4c, A-1155463 3.16 nM) is recorded as 9.546, 10.8583, 12.6623, 97.0888, 90.7768, 104.54, 76.8281, 71.2211, 88.1111 U/L; the “SEAP (U/L)” value (Figure 4c, A-1155463 10 nM) is listed as 36.3624, 49.2548, 52.4537, 208.602, 193.911, 207.639, 185.512, 161.246, 182.675 U/L; the “SEAP (U/L)” value (Figure 4c, A-1155463 31.6 nM) is on record as 141.491, 160.654, 159.439, 344.989, 313.054, 303.564, 274.497, 276.861, 326.649 U/L; the “SEAP (U/L)” value (Figure 4c, A-1155463 100 nM) is given as 249.571, 271.902, 289.151, 384.041, 407.382, 386.207, 383.122, 323.856, 380.578 U/L; the “SEAP (U/L)” value (Figure 4c, A-1155463 316 nM) is on record as 340.239, 334.632, 369.332, 436.35, 400.122, 424.545, 357.507, 363.639, 364.31 U/L. For the same molecule, the “SEAP (U/L)” value by setting is: (Figure 4c, A-1155463 1000 nM) 331.969, 319.567, 336.626, 325.401, 275.57, 309.58, 271.876, 243.941, 325.246 U/L; (Figure 4c, A-1155463 3162 nM) 292.223, 279.844, 308.976, 222.337, 207.226, 209.948, 183.653, 165.849, 206.73 U/L; (Figure 4c, A-1155463 10000 nM) 160.251, 171.032, 170.98, 59.8594, 64.0775, 78.9584, 67.4486, 63.1947, 66.8306 U/L; (Figure 4e, A-1155463 1 nM) 15.8984 U/L and 17.1285 U/L; (Figure 4e, A-1155463 3.16 nM) 20.2858 U/L, 18.8152 U/L, 21.9462 U/L; (Figure 4e, A-1155463 10 nM) 60.5453 U/L, 59.4708 U/L, 50.2269 U/L. Further, the “SEAP (U/L)” value (Figure 4e, A-1155463 10000 nM) is 83.9348 U/L, 89.2399 U/L, 91.9583 U/L; the “SEAP (U/L)” value (Figure 4d, A-1155463 10 nM) is 20.832, 27.2622, 23.1658, 47.5018, 29.428 U/L; the “SEAP (U/L)” value (Figure 4d, A-1155463 31.6 nM) is on record as 33.464, 42.2092, 42.8737, 76.3295, 63.3534, 66.044 U/L; the “SEAP (U/L)” value (Figure 4d, A-1155463 100 nM) is listed as 48.651 U/L, 63.7971 U/L, 59.6436 U/L; the “SEAP (U/L)” value (Figure 4d, A-1155463 316 nM) was 48.2346, 52.2009, 43.4433, 118.052, 78.9581 U/L; the “SEAP (U/L)” value (Figure 4d, A-1155463 1000 nM) is listed as 25.921, 26.9233, 27.2207, 30.4572, 52.4796 U/L. Besides, the “SEAP (U/L)” value is 13.3246, 14.7352, 12.3848, 17.4648, 36.8819 U/L (Figure 4d, A-1155463 3162 nM) and 6.891, 7.321, 5.776, 11.7577, 18.7583 U/L (Figure 4d, A-1155463 10000 nM).
